# This is one part of the list. These are further read-outs of the screen, such as a control signal, another cell line or another target. No call is given for them. Most of these compounds were active or inconclusive in the main read-out, so they are no random draw. Words in brackets tell the shape of the fitted curve; partial curves, single points and poor fits give uncertain potencies.
# Experiment: qHTS Assay for Lipid Storage Modulators in Drosophila S3 Cells;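 for cell number change: cells counted by Cell Tracker Red CMTPX staining in the red channel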
# Details: BODIPY lipid droplet fluorescence, 18-24 h; for cell number change: measured here: cell count max response, cells fed with added oleic acid
# Procedure, shortened: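 Laser-scanning cytometry quantifies lipid droplet accumulation (500–530 nm total intensity; droplet/cell object ratio) in oleic acid-fed (400 uM added) Drosophila S3 cells treated with a concentration series. 20 uM Triacsin C defined 100% inhibition.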
# [1] = measured here: lipid fluorescence (Fed channel) AC50, cells fed with added oleic acid
# [2] = measured here: cell number channel AC50, cells fed with added oleic acid
SMILES,cell number change [%],AC50 [1],AC50 [2]
CCC(C)C(=O)Nc1nnc(SCC(=O)NC2CCCC2)s1 (stereo not drawn),5.41,"2.91 µM [falling, single point]",–
COC(=O)C1=C(N)Oc2cc(C)[nH]c(=O)c2C1c1cc(OC)c(OC)c(OC)c1 (stereo not drawn),19.9,"1.84 µM [rising, partial curve, poor fit]",–
COc1cccc(CN(C)C(=O)CNC(=O)c2sc3ccccc3c2Cl)c1OC,-8.22,"29.1 µM [rising, single point]",–
CN(C(=O)c1ccc(NC(=O)c2ccco2)cc1)c1ccccc1,–,"7.31 µM [falling, partial curve]",–
COc1ccccc1NS(=O)(=O)c1ccccc1C#N,1.55,–,–
O=C(NC(=S)Nc1ccc(CN2CCCCC2)cc1)c1cccc(OCc2ccccc2)c1,62.8,"0.13 µM [falling, full curve, poor fit]","0.092 µM [falling, full curve, poor fit]"
Cc1ccc2[nH]c3c(N4CCOCC4)ncnc3c2c1,-12,–,"0.259 µM [rising, full curve, poor fit]"
Cc1cc(C)cc(N(C(=O)c2csnn2)C(C(=O)NC2CCCCC2)c2ccncc2)c1 (stereo not drawn),-15.4,"0.0517 µM [rising, partial curve, poor fit]",–
CC(=O)Nc1ccc(-c2csc(NC(=O)c3ccc(C)o3)n2)cc1,-15,"11.6 µM [falling, partial curve]",–
COc1ccc(NC(=O)COc2ccc(S(=O)(=O)N3CCOCC3)cc2C)cc1OC,-10.5,–,–
CC(=O)N1CC(C)Oc2ccc(S(=O)(=O)NC(CC(=O)O)c3ccccc3)cc21 (stereo not drawn),-0.165,"20.6 µM [rising, single point]",–
CCc1cccc(NC(=O)CCCN2C(=O)C(c3ccccc3)Oc3cccnc32)c1 (stereo not drawn),–,"13 µM [falling, partial curve]",–
Cc1ccc(/C(=N\O)c2oc3c(C)c4oc(=O)cc(C)c4cc3c2C)cc1,-32.6,"32.6 µM [falling, single point]","32.6 µM [falling, single point]"
C=CCn1c(C)c(C(C)=O)c(N2CCOCC2)nc1=S,–,"4.11 µM [falling, partial curve, poor fit]",–
CCOC(=O)N1N=C(c2ccccc2)CC1(O)C(F)(F)F (stereo not drawn),13.8,"16.4 µM [rising, single point]",–
CCNC(=O)/C=C1\NC(C)(C)Cc2c1ccc1ccccc21,84.2,–,"13 µM [rising, partial curve]"
COc1ccc(Cc2nnc(NC(=O)CS(=O)(=O)c3ccccc3)s2)cc1OC,-3.42,"2.59 µM [rising, single point]",–
CC(C)CC(=O)Nc1ccc(N2CCN(C(=O)c3cccs3)CC2)cc1,14.5,–,–
Cn1c(=O)c2c(nc(Br)n2CCSc2nnnn2-c2ccccc2)n(C)c1=O,86.3,"2.06 µM [rising, partial curve]","2.06 µM [rising, full curve]"
Cn1cccc1C(C#N)(CC#N)c1cccc(F)c1C#N (stereo not drawn),15.8,–,"0.326 µM [falling, single point]"

# A different layout for part of the listing above.
SMILES	cell number change [%]	AC50 [1]	AC50 [2]
COc1ccc(NC(=O)COc2ccc(S(=O)(=O)N3CCOCC3)cc2C)cc1OC	-10.5	–	–
CC(=O)N1CC(C)Oc2ccc(S(=O)(=O)NC(CC(=O)O)c3ccccc3)cc21 (stereo not drawn)	-0.165	20.6 µM [rising, single point]	–
CCc1cccc(NC(=O)CCCN2C(=O)C(c3ccccc3)Oc3cccnc32)c1 (stereo not drawn)	–	13 µM [falling, partial curve]	–
Cc1ccc(/C(=N\O)c2oc3c(C)c4oc(=O)cc(C)c4cc3c2C)cc1	-32.6	32.6 µM [falling, single point]	32.6 µM [falling, single point]
C=CCn1c(C)c(C(C)=O)c(N2CCOCC2)nc1=S	–	4.11 µM [falling, partial curve, poor fit]	–
CCOC(=O)N1N=C(c2ccccc2)CC1(O)C(F)(F)F (stereo not drawn)	13.8	16.4 µM [rising, single point]	–
CCNC(=O)/C=C1\NC(C)(C)Cc2c1ccc1ccccc21	84.2	–	13 µM [rising, partial curve]

# (next part)

SMILES,cell number change [%],AC50 [1],AC50 [2]
Cc1ccc(-c2cc(C(F)F)n3ncc(C(=O)Nc4c(C)nn(Cc5ccccc5Cl)c4C)c3n2)cc1,-0.832,"16.4 µM [falling, partial curve]",–
CCOc1ccc(CN2CCCC(CO)(Cc3ccc(F)cc3)C2)cc1 (stereo not drawn),-9.62,–,–
CC(C)CN1CCC(CN(C)Cc2nc(-c3cnccn3)no2)CC1,18.9,"29.1 µM [rising, single point]",–
CCN(CC)C(=O)c1sc(NC(=O)c2ccoc2C)c(C(=O)OC)c1C,-17.3,"1.46 µM [rising, full curve]",–
COC(=O)c1nnn(-c2ccsc2C(=O)OC)c1C(=O)OC,-26.5,"1.03 µM [falling, full curve, poor fit]",–
CC(C)(C)NC(=O)NC(=O)CN1CCN(c2ccccc2O)CC1,-37.1,"29.1 µM [falling, single point]","29.1 µM [falling, single point]"
COCCn1c(SC(C(=O)Nc2cc(C)ccc2OC)c2ccccc2)nnc1-c1ccc(Cl)cc1 (stereo not drawn),17.7,–,"0.517 µM [rising, full curve, poor fit]"
COc1ccc(Cl)cc1-c1n[nH]c(=S)n1Cc1ccccc1,23,"0.00411 µM [rising, full curve, poor fit]",–
O=C1[C@@H]2C(Cc3ccc(O)cc3)NC3(C(=O)Nc4ccc(F)cc43)[C@@H]2C(=O)N1c1ccccc1 (stereo partly drawn),-7.46,"4.11 µM [rising, single point]",–
C=CCNCc1ccccc1[N+](=O)[O-],15.8,"29.1 µM [rising, single point]",–
O=C(NNC(=O)c1cc(Br)ccc1O)c1csc(N2CCOCC2)n1,-21.2,–,–
Cc1ccc(NC(=O)c2c(F)cccc2Cl)cc1S(=O)(=O)N1CCOCC1,12.7,–,–
O=C1CC(SCc2nc3ccccc3[nH]2)C(=O)N1c1ccc(F)cc1 (stereo not drawn),0.809,"0.82 µM [rising, full curve, poor fit]",–
O=C(O)C1(c2ccccc2)CCN(S(=O)(=O)c2cccs2)CC1,-18.6,"0.731 µM [falling, full curve, poor fit]",–
CC(C)OCC(O)CN (stereo not drawn),-1.21,–,–
O=C1CCCN1CCCNC(=S)Nc1ccc(Nc2ccccc2)cc1,-32.4,–,–
COc1ccc(N2CCN(C(CNC(=O)c3cccs3)c3ccco3)CC2)cc1 (stereo not drawn),50,"18.4 µM [rising, single point]","4.11 µM [rising, full curve]"
COc1ccc2nc(NC(=O)CSc3nc(C)cc(C)n3)sc2c1,-15.1,"0.517 µM [rising, full curve, poor fit]",–
CC(=O)OC(C(=O)NC1CCCCC1)c1ccccc1 (stereo not drawn),5.7,–,–
CCCCc1cc(=O)oc2cc(C)cc(OCC(=O)N[C@@H](CSCc3ccccc3)C(=O)O)c12,-12.7,"2.91 µM [falling, single point]",–

# — PubChem BioAssay AID2685 (National Center for Advancing Translational Sciences (NCATS), 2010)
